Small differences around the control level are noise.
Legend:
Assay in all cases: normalised response (% of control), CellTox Green; higher = less cell death (100 = DMSO, 0 = benzethonium chloride kill control)
Settings in all cases: incubation time: 72 h
CAL-51 = tested on: CAL-51
Protocol: (§1)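 DSRT, 72 h incubation, CellTox Green / CellTiter-Glo readout. Signal is normalised to DMSO and benzethonium chloride controls. Value is the normalised response at the lowest tested concentration.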

MDA-MB-436 = tested on: MDA-MB-436
Protocol: as §1

HDQ-P1 = tested on: HDQ-P1
Protocol: as §1

CAL-85-1 = tested on: CAL-85-1
Protocol: as §1

Hs578T = tested on: Hs578T
Protocol: as §1

BT-474 = tested on: BT-474
Protocol: as §1

CAL-120 = tested on: CAL-120
Protocol: as §1

BT-549 = tested on: BT-549
Protocol: as §1

MCF-10A = tested on: MCF-10A
Protocol: as §1

MDA-MB-453 = tested on: MDA-MB-453
Protocol: as §1

MFM-223 = tested on: MFM-223
Protocol: as §1

HCC1937 = tested on: HCC1937
Protocol: as §1

CAL-148 = tested on: CAL-148
Protocol: as §1

DU-4475 = tested on: DU-4475
Protocol: as §1

MDA-MB-231 = tested on: MDA-MB-231
Protocol: as §1

MDA-MB-468 = tested on: MDA-MB-468
Protocol: as §1

HCC1143 = tested on: HCC1143
Protocol: as §1

HCC1599 = tested on: HCC1599
Protocol: as §1

| Compound | normalised response (CAL-51) | normalised response (MDA-MB-436) | normalised response (HDQ-P1) | normalised response (CAL-85-1) | normalised response (Hs578T) | normalised response (BT-474) | normalised response (CAL-120) | normalised response (BT-549) | normalised response (MCF-10A) | normalised response (MDA-MB-453) | normalised response (MFM-223) | normalised response (HCC1937) | normalised response (CAL-148) | normalised response (DU-4475) | normalised response (MDA-MB-231) | normalised response (MDA-MB-468) | normalised response (HCC1143) | normalised response (HCC1599) |
| --- | --- | --- | --- | --- | --- | --- | --- | --- | --- | --- | --- | --- | --- | --- | --- | --- | --- | --- |
| CN(C)/N=N/c1[nH]cnc1C(N)=O [Dacarbazine] (1 nM) | 104% | 90.4% | 104% | 106% | 96.8% | 100% | 97.3% | 93.1% | 99.2% | 106% | 103% | 100% | 104% | 105% | 102% | 80.6% | 98.2% | 108% |
| O=C(NC[C@H](O)CO)c1ccncc1Nc1ccc(I)cc1F [Pimasertib] (1 nM) | 103% | 87.1% | 67% | 102% | 73.1% | 103% | 96.3% | 104% | 88.5% | 116% | 100% | 76.4% | – | 97.8% | 83.9% | 106% | 78.7% | 90.8% |
| Cc1c(C(=O)Nc2ccc(N3C[C@@H](C)O[C@@H](C)C3)nc2)cccc1-c1ccc(OC(F)(F)F)cc1 [Erismodegib] (1 nM) | 99.1% | 87.1% | 101% | 103% | 93.4% | 104% | 94.1% | 96.4% | 96.7% | 105% | 83.1% | 101% | 93.4% | 97% | 99% | 104% | 99.9% | 99.8% |
| C[C@H]1C[C@@H]2[C@H]([C@@H](O)C[C@@]3(C)[C@H]2CC[C@]3(O)C(=O)CO)[C@@]2(C)C=CC(=O)C=C12 [Methylprednisolone] (1 nM) | 119% | 102% | 88.1% | 106% | 89.7% | 101% | 101% | 97.2% | 98.3% | 106% | 103% | 101% | 107% | 102% | 114% | 92.1% | 121% | 83.8% |

— the supplement of paper PMC4862054
